From paper PMC9675737
No constants are given. Whether binding was seen depends on the method and setting. Binding seen in cells or lysates may run through a third protein. Here binding means that the protein was enriched with, or labelled near, the bait; the list need not be complete.

The chains behind the UniProt entries cited, without tags or fusion partners.
UniProt O60825: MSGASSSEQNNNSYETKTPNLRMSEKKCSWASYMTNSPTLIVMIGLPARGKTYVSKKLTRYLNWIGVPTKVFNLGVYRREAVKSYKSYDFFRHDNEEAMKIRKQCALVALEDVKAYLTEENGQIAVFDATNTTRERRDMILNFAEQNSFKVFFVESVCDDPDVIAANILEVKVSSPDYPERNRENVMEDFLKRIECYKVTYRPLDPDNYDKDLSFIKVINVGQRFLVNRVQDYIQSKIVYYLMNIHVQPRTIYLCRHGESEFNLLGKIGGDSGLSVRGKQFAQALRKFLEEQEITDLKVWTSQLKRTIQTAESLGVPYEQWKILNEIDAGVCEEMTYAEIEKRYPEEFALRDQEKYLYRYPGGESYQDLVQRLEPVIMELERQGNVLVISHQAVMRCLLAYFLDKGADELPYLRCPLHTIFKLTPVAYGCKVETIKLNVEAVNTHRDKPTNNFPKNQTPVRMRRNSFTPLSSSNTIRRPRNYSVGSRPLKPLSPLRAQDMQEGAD
UniProt P31946: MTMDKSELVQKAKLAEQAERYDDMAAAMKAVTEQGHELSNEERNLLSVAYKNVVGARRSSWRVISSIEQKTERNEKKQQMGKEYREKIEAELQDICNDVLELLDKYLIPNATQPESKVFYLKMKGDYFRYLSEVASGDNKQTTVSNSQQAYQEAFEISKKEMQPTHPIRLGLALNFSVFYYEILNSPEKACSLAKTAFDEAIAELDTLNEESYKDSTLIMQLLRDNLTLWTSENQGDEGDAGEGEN
UniProt Q16875: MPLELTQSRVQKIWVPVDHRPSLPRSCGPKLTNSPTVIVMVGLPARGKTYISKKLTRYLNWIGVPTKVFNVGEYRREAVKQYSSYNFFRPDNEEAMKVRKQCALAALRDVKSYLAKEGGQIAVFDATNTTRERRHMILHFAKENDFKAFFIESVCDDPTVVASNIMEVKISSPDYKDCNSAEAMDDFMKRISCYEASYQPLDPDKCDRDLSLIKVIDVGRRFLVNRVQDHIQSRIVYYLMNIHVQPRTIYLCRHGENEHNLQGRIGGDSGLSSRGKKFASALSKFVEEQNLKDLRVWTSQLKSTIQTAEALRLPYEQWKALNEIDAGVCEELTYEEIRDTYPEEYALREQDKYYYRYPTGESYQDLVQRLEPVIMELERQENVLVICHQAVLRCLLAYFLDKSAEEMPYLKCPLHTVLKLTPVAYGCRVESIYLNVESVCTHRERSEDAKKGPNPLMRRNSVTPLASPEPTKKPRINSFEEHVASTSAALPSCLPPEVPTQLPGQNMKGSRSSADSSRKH

Molecular target: His-tagged PFKFB2 (human) (UniProt O60825)
Experiment: affinity purification with mass spectrometry; His-tag pull-down (Ni-IMAC, His-Trap) of His-PFKFB2 complexes from SKMel103 and UACC903 cells, untreated, 1 h GS and/or sorafenib 15 µM; LC-MS/MS

binding | Substance
binds | 14-3-3β (from UniProt P31946 1-246)
binds | PFKFB3 (endogenous) (from UniProt Q16875 1-520) (enzyme)
